Patent US20230374147A1
Results are given in words; binding and its absence hold for the method and conditions named. Some entries that bind do so weakly or less than the wild type.

Amino acid sequences for entries named in this document (tags omitted). A change or cut given only in a name is not applied to a line headed by its entry. Chains listed by the source or under a name are the forms on record and can include a tag or linker.
UniProt O88472: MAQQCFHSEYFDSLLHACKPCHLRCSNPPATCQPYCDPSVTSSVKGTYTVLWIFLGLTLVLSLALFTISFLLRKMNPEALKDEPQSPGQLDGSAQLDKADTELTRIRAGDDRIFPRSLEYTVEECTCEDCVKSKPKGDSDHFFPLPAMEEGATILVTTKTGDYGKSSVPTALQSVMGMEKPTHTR
Cyno TACI-His (Sino Biological, 90976-C08H) (G7PTR7, form named): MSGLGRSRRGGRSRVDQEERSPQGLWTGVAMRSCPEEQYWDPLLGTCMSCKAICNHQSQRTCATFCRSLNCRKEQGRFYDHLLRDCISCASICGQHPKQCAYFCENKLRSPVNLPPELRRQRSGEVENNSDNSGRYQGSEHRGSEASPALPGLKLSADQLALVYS

Columns and labels:
[1] = molecular target: His-tagged mouse BCMA (Acro Biosystems, BCA-M52H3) (mouse) (UniProt O88472); experiment: BLI, His-tagged mouse BCMA on HIS1K tip
[2] = molecular target: Cyno TACI-His (Sino Biological, 90976-C08H) (cynomolgus macaque) (UniProt G7PTR7); experiment: ELISA, coated His-tagged antigen
[3] = molecular target: Cyno TACI-His (Sino Biological, 90976-C08H) (cynomolgus macaque) (UniProt G7PTR7); experiment: BLI (Gator), antibody loaded on HFC biosensor, His-tagged antigen as analyte

Binder	binding [1]	binding [2]	binding [3]
1C8-27 hIgG1 (antibody, V domains shown) VH: QVQLVQSGAEVKKPGASVKVSCKASGYTFTNYVMHWVRQAPGQRLEWMGYILPYNDGTKYSQKFQGRVTITRDTSASTAYMELSSLRSEDTAVYYCARYDWEGSFDYWGQGTTVTVSS VL: DIQMTQSPSSLSASVGDRVTITCAASQDISNYLNWYQQKPGKAVKLLMRYTSRLHSGVPSRFSGSGSGTDFTLTISSLQPEDFATYYCQQGNRFPPTFGGGTKLEIKR			binds
1C8-6A3 hIgG1 (antibody, V domains shown) VH: QVQLVQSGAEVKKPGASVKVSCKASGYTFTNYVMHWVKQKPGQGLEWMGYILPYNDGTKYAQKFQGKVTMTSDKSTSTVYMELSSLTSEDTAVYYCARYDYEGSFDYWGQGTLVTVSS VL: DIQMTQSPSSLSASVGDRVTITCRASQDISNYLNWYQQKPGKAPKLLMCYTSRLHSGVPSRFSGSGSGTDFTLTISSLEQEDFATYYCQQGNTFPPTFGGGTKVEIKR		binds	binds
1C8-25 hIgG1 (antibody, V domains shown) VH: QVQLVQSGAEVKKPGASVKVSCKASGYTFTNYVMHWVRQAPGQRLEWMGYILPYNDGTKYSQKFQGRVTITRDTSASTAYMELSSLRSEDTAVYYCARYDWEGSFDYWGQGTTVTVSS VL: DIQMTQSPSSLSASVGDRVTITCRASQDIGNYLNWYQQKPGKAVKLLMRYTSRLHSGVPSRFSGSGSGTDFTLTISSLQPEDFATYYCQQGFTFPPTFGGGTKLEIKR			binds

Next, values leading:

binding [1]	binding [2]	binding [3]	Binder
no binding (tested: 1000 nM)			J6M0 (antibody, V domains shown) VH: QVQLVQSGAEVKKPGSSVKVSCKASGGTFSNYWMHWVRQAPGQGLEWMGATYRGHSDTYYNQKFKGRVTITADKSTSTAYMELSSLRSEDTAVYYCARGAIYDGYDVLDNWGQGTLVTVSS VL: DIQMTQSPSSLSASVGDRVTITCSASQDISNYLNWYQQKPGKAPKLLIYYTSNLHSGVPSRFSGSGSGTDFTLTISSLQPEDFATYYCQQYRKLPWTFGQGTKLEIK
	binds	binds	1C8-403 hIgG1 (antibody, V domains shown) VH: QVQLVQSGAEVKKPGASVKVSCKASGYTFTNYVMHWVKQKPGQGLEWMGYILPYNDGTKYAQKFQGKVTMTSDKSTSTVYMELSSLTSEDTAVYYCARYDWEGSFDYWGQGTLVTVSS VL: DIQMTQSPSSLSASVGDRVTITCRASSDISNYLNWYQQKPGKAPKLLMCYTSRLHSGVPSRFSGSGSGTDFTLTISSLEQEDFATYYCQQGNTFPPTFGGGTKVEIKR
	binds	binds	1C8-507 hIgG1 (antibody, V domains shown) VH: QVQLVQSGAEVKKPGASVKVSCKASGYTFRNYVMHWVKQKPGQGLEWMGWILPYNDGTKYAQKFQGKVTMTSDKSTSTVYMELSSLTSEDTAVYYCARYDYEGSFDYWGQGTLVTVSS VL: DIQMTQSPSSLSASVGDRVTITCRASQDISNYLNWYQQKPGKAPKLLMRYTSLLHSGVPSRFSGSGSGTDFTLTISSLEQEDFATYYCQQGNTFPPTFGGGTKVEIKR
	binds	binds	1C8-610 hIgG1 (antibody, V domains shown) VH: QVQLVQSGAEVKKPGASVKVSCKASGYTFTNYVMFWVKQKPGQGLEWMGYITPYNDGTKYAQKFQGKVTMTSDKSTSTVYMELSSLTSEDTAVYYCARYDYEGSFDYWGQGTLVTVSS VL: DIQMTQSPSSLSASVGDRVTITCRASQDISNYLNWYQQKPGKAPKLLMRYTSRFHSGVPSRFSGSGSGTDFTLTISSLEQEDFATYYCQQGNTFPPTSGGGTKVEIKR
